Assay: general procedure: Boc solid-phase peptide synthesis; active ester chemistry
Details: whole synthesis

Substance: Ac-TFFYGGSRGKRNNFKTEEY-OH
- final HPLC purity: 95%

Source: article PMC8377144 (Signal Transduction and Targeted Therapy, 2021)
